Publication PMC7875907
No constants are given. Whether binding was seen depends on the method and setting. Binding seen in cells or lysates may run through a third protein. Some entries that bind do so weakly or less than the wild type. For some assays here: Where a sequence is shown, tags or fusion partners need not be part of it. Each block holds one molecule with its values, some of them ahead of it.

The chains behind the UniProt entries cited, without tags or fusion partners.
UniProt P51784: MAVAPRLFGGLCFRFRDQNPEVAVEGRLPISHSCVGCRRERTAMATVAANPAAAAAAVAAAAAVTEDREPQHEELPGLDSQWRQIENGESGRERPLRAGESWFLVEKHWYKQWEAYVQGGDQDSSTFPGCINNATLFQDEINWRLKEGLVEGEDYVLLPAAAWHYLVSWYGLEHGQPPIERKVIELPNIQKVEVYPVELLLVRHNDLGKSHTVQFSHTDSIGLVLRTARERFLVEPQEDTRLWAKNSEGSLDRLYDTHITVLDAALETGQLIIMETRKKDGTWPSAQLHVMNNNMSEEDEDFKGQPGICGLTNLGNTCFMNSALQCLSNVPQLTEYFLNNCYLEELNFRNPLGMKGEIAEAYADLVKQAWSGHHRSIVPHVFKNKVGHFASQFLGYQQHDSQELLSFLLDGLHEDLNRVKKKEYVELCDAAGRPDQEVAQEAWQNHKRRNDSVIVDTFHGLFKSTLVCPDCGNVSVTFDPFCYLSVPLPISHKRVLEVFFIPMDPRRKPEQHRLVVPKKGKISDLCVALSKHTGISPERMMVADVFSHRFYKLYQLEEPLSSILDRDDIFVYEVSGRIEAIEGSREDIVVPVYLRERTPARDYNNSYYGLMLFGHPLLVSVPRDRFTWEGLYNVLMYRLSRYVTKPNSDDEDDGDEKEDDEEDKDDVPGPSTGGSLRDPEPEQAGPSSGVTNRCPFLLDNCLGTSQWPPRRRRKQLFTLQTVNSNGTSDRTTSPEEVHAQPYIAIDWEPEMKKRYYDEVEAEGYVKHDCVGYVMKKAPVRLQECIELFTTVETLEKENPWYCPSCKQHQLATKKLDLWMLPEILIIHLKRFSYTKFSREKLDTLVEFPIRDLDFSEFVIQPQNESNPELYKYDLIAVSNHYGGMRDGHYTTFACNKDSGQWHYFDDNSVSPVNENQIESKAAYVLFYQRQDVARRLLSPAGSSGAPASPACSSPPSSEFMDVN

Assays:
[1] = biological target: T1, 3 × Myc‐tagged NONO (entire length) (UniProt Q15233); test: co-IP; Flag-USP11 and Myc-NONO transfected into HEK293; lysates precipitated with antibodies against Flag or Myc or isotype-matched normal IgG, overnight at 4°C, Protein G Magnetic Beads; Western blot
T1 sequence: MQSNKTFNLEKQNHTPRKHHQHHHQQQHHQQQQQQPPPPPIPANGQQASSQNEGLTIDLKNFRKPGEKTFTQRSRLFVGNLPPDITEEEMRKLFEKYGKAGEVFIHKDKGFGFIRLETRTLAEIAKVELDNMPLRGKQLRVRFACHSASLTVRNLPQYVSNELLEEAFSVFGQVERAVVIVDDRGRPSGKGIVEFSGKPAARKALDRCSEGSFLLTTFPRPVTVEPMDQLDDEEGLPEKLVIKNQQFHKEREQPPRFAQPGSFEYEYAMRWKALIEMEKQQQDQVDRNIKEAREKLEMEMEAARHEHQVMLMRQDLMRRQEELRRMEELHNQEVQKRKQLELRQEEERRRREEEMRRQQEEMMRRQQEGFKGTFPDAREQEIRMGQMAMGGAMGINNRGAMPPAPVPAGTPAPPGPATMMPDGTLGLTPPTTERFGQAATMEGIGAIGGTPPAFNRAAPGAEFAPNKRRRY

[2] = biological target: T2, endogenous NONO (human (endogenous in SK-Mel-28 and A375)) (UniProt Q15233); test: co-IP; endogenous proteins in SK-Mel-28 and A375 lysates; precipitated with anti-USP11 or anti-NONO antibody or control IgG; Western blot
T2 sequence: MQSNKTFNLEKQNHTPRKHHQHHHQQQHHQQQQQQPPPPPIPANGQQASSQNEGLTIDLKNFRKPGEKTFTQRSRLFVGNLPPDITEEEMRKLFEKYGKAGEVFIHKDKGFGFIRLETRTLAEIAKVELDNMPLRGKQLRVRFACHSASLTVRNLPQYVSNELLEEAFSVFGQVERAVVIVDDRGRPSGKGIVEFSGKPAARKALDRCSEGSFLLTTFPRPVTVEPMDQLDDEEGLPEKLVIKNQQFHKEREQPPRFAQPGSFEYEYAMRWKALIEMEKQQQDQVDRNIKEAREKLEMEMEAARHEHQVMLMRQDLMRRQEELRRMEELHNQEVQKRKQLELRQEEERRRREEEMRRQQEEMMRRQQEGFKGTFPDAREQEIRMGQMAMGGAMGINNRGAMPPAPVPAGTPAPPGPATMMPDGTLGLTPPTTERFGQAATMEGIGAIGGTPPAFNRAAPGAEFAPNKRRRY

[3] = biological target: 3 × Flag‐tagged USP11 (wild‐type USP11, entire length) (UniProt P51784); test: co-IP; Flag-USP11 and Myc-NONO transfected into HEK293; lysates precipitated with antibodies against Flag or Myc or isotype-matched normal IgG, overnight at 4°C, Protein G Magnetic Beads; Western blot
[4] = biological target: recombinant GST‐USP11 (full length) (UniProt P51784); test: pull-down; GST or GST-USP11 purified from E.coli incubated with equal Myc-NONO expressed in HEK293, loaded onto GST-tag Purification Resin; Myc-NONO in the elution analysed; only the target purified
[5] = biological target: endogenous USP11 (human (endogenous in SK-Mel-28 and A375)) (UniProt P51784); test: co-IP; endogenous proteins in SK-Mel-28 and A375 lysates; precipitated with anti-USP11 or anti-NONO antibody or control IgG; Western blot

Molecule: 3 × Flag‐tagged USP11 (wild‐type USP11, entire length) (from UniProt P51784 1-963) (enzyme)
binding [1]: binds

Molecule: endogenous USP11 (from UniProt P51784 1-963) (enzyme)
binding [2]: binds

More lines, now with the values ahead:

binding [3]: binds
binding [4]: binds
B1: 3 × Myc‐tagged NONO (entire length) (protein, UniProt Q15233 1-471)
chain: MQSNKTFNLEKQNHTPRKHHQHHHQQQHHQQQQQQPPPPPIPANGQQASSQNEGLTIDLKNFRKPGEKTFTQRSRLFVGNLPPDITEEEMRKLFEKYGKAGEVFIHKDKGFGFIRLETRTLAEIAKVELDNMPLRGKQLRVRFACHSASLTVRNLPQYVSNELLEEAFSVFGQVERAVVIVDDRGRPSGKGIVEFSGKPAARKALDRCSEGSFLLTTFPRPVTVEPMDQLDDEEGLPEKLVIKNQQFHKEREQPPRFAQPGSFEYEYAMRWKALIEMEKQQQDQVDRNIKEAREKLEMEMEAARHEHQVMLMRQDLMRRQEELRRMEELHNQEVQKRKQLELRQEEERRRREEEMRRQQEEMMRRQQEGFKGTFPDAREQEIRMGQMAMGGAMGINNRGAMPPAPVPAGTPAPPGPATMMPDGTLGLTPPTTERFGQAATMEGIGAIGGTPPAFNRAAPGAEFAPNKRRRY

binding [5]: binds
B2: endogenous NONO (protein, UniProt Q15233 1-471)
chain: MQSNKTFNLEKQNHTPRKHHQHHHQQQHHQQQQQQPPPPPIPANGQQASSQNEGLTIDLKNFRKPGEKTFTQRSRLFVGNLPPDITEEEMRKLFEKYGKAGEVFIHKDKGFGFIRLETRTLAEIAKVELDNMPLRGKQLRVRFACHSASLTVRNLPQYVSNELLEEAFSVFGQVERAVVIVDDRGRPSGKGIVEFSGKPAARKALDRCSEGSFLLTTFPRPVTVEPMDQLDDEEGLPEKLVIKNQQFHKEREQPPRFAQPGSFEYEYAMRWKALIEMEKQQQDQVDRNIKEAREKLEMEMEAARHEHQVMLMRQDLMRRQEELRRMEELHNQEVQKRKQLELRQEEERRRREEEMRRQQEEMMRRQQEGFKGTFPDAREQEIRMGQMAMGGAMGINNRGAMPPAPVPAGTPAPPGPATMMPDGTLGLTPPTTERFGQAATMEGIGAIGGTPPAFNRAAPGAEFAPNKRRRY
